Values of other authors in patent US20160095850A1, “METHODS AND COMPOSITIONS FOR TREATMENT OF HIV INFECTION” (COOPER HUMAN SYSTEMS LLC, priority 2013, published 2016).
For at least one compound, name, drawing or mass did not settle the structure.

Tests used:
[1] = tested on: HIV RNA expression in CD4 T cells
latent HIV = details: in vitro T-cell model of HIV latency; read-out: EC50 of HIV induction

SMILES: Cc1[nH]c2ccccc2c1CCNCc1ccc(/C=C/C(=O)NO)cc1 [panobinostat]
- course of the induction of HIV RNA [1]: transient and diminished after 24 hours

SMILES: C/C=C1\NC(=O)[C@H]2CSSCC/C=C/[C@H](CC(=O)N[C@H](C(C)C)C(=O)N2)OC(=O)[C@H](C(C)C)NC1=O [romidepsin]
- EC50 (latent HIV): 4.5 nM
- persistence of induced intracellular HIV RNA expression [1]: 48 h
- mean increase in intracellular HIV RNA levels ([1]; 4-hour exposure to 40 nM): 6 fold
